From paper PMC4867598
These are yes or no findings as the source states them, for the method shown. Binding seen in cells or lysates may run through a third protein. Some entries that bind do so weakly or less than the wild type.

The chains behind the UniProt entries cited, without tags or fusion partners. Residues count along the entry.
UniProt P00750, residues 36-562: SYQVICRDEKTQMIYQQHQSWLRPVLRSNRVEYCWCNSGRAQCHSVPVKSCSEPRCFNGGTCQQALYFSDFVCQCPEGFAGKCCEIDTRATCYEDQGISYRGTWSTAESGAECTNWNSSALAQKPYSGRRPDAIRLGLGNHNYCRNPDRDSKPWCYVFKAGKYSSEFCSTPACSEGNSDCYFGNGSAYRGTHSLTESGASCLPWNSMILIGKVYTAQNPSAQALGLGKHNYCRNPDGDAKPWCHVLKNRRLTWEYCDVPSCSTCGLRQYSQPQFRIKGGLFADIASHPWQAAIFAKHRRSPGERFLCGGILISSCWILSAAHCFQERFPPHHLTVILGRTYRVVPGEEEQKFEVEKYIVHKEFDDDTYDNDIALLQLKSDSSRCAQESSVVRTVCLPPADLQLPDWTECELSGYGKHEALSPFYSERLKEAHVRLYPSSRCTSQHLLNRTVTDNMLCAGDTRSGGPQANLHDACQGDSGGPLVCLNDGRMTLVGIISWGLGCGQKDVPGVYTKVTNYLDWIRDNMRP
UniProt Q01097, residues 27-1482: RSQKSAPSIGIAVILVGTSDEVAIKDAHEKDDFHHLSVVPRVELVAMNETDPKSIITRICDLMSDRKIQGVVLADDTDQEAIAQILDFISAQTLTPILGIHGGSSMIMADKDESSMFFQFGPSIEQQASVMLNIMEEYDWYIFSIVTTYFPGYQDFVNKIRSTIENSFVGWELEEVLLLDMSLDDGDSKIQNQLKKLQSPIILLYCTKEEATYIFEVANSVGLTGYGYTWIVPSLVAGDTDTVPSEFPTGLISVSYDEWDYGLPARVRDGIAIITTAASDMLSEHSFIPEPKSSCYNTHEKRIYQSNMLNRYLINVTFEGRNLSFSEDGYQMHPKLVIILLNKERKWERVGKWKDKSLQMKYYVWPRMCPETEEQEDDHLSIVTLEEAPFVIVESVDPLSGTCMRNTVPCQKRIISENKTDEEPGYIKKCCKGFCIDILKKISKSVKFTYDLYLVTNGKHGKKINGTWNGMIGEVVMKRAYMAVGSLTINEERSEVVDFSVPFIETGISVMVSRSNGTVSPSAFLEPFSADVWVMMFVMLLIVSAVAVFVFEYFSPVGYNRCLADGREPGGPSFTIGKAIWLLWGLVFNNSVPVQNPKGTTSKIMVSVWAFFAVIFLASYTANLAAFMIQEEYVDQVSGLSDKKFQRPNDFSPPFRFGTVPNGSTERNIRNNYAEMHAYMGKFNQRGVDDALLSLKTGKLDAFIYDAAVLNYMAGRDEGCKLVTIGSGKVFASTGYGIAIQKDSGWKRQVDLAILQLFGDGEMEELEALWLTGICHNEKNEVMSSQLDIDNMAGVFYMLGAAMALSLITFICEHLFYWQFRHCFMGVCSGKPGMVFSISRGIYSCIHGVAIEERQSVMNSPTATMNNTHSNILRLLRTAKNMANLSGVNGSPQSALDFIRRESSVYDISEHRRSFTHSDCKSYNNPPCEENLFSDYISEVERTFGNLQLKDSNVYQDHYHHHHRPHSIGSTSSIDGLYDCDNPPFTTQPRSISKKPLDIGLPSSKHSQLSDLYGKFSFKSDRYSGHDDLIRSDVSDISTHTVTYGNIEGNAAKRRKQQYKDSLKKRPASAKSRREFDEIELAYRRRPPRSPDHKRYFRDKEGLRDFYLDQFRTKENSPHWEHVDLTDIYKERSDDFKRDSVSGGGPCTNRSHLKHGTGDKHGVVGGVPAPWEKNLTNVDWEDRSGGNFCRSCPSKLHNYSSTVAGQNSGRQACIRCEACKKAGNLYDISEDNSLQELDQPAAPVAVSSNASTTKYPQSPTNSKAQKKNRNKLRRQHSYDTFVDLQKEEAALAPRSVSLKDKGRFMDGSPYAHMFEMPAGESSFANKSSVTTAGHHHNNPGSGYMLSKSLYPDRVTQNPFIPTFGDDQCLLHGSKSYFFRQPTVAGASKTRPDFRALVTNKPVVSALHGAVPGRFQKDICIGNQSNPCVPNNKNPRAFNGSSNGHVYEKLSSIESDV

Biological target: tissue plasminogen activator (exogenous; Actilyse) (UniProt P00750)
Experiment: co-IP; extracts of ischemic brain hemispheres of mice 24 hours after MCA occlusion, RIPA lysis buffer; 500 ug lysate with anti-NR2B or anti-tPA antibody or normal IgG overnight at 4 °C, Protein A agarose, Western blot; mice treated with vehicle, tPA, rADAMTS 13 + tPA, or rADAMTS 13

“NMDA receptor subunit NR2B (from UniProt Q01097 27-1482)” was tested, and the binding was “binds”.
